In patent KR20200072008A:
No constants are given. Whether binding was seen depends on the method and setting. Some results given as binding are weak or reduced against the parent protein; the word gives no strength.

Chains of the proteins cited; added tags and fusions are not shown. Residues count along the entry.
UniProt P60880, residues 1-197: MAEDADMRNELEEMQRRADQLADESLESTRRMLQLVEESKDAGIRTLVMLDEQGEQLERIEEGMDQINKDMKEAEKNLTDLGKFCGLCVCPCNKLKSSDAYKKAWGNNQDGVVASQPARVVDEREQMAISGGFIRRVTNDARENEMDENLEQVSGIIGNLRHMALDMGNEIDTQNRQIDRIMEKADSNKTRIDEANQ

Biological target: GST-SNAP25 197 (UniProt P60880)
Assay: direct ELISA; […]; 1 h at room temperature

B1: C16 IgG-HRP 접합체 (antibody, V domains shown)
VH: EVQLQQSGAELARPGASVQMSCKAFGYTFTNYTMHWVRQRPGQGLEWIGFINPSSDYTNYNQKFKDKATLSADKSSSTAYMQLSSLTSEDSAVYYCARRIFYNGRTYAAMDYWGQGTSVTVSS
VL: DIVMTQSPASLAVSLGQRATISCRASKSVSSSGYSYMHWYQQKPGQPPKLLIYLASNLESGVPARFSGSGSGTDFTLNIHPVEEEDAATYYCQHSRELPLTFGAGTKLELK
With B1 the binding was “binds”.
